No constants are given. Whether binding was seen depends on the method and setting. In cells and extracts the contact can be indirect. These calls come from enrichment with a bait or labelling near it, and not all partners need be listed. For some of these results: Tags and fused reporters may be left off the sequences shown. Blank lines part the entries; values can stand above or below the molecule they belong to.
Key:
[1] = biological target: TIP60-Flag (Tip60-H3F knock-in mice) (mouse) (UniProt Q8CHK4); assay: affinity purification with mass spectrometry; anti-Flag IP from high molecular weight glycerol gradient fractions 1–3 of forebrain nuclear lysates of Npas4–Flag-HA, Tip60-H3F and wild-type mice 2 h after kainic acid; eluates of fractions pooled
NPAS4–Flag-HA (mouse) = biological target: T1, NPAS4–Flag-HA (mouse) (UniProt Q8BGD7); assay: as above
T1 sequence: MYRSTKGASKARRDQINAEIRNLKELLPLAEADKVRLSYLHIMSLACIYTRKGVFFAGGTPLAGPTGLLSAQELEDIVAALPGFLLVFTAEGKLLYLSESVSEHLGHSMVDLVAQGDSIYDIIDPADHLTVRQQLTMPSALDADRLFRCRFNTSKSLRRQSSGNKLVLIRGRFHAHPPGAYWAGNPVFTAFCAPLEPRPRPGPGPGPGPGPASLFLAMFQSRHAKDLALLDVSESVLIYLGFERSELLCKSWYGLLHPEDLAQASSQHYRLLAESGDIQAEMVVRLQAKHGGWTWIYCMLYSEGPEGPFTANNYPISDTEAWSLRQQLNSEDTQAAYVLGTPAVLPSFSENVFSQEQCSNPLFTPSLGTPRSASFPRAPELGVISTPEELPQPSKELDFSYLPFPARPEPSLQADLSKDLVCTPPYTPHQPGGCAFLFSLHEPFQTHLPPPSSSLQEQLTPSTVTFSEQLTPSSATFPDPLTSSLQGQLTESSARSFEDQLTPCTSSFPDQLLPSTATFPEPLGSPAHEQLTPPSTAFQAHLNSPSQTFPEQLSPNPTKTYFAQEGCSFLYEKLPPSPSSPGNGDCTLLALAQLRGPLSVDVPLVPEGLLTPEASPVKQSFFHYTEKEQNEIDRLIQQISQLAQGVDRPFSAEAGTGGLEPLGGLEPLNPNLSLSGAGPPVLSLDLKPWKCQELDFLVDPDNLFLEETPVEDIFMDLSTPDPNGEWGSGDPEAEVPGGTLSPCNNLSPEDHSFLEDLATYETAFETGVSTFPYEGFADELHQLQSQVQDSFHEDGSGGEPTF

The chains behind the UniProt entries cited, without tags or fusion partners. Where a name states a change or a piece, a line headed by the entry shows the natural chain unless it says otherwise.
UniProt Q8CHK4: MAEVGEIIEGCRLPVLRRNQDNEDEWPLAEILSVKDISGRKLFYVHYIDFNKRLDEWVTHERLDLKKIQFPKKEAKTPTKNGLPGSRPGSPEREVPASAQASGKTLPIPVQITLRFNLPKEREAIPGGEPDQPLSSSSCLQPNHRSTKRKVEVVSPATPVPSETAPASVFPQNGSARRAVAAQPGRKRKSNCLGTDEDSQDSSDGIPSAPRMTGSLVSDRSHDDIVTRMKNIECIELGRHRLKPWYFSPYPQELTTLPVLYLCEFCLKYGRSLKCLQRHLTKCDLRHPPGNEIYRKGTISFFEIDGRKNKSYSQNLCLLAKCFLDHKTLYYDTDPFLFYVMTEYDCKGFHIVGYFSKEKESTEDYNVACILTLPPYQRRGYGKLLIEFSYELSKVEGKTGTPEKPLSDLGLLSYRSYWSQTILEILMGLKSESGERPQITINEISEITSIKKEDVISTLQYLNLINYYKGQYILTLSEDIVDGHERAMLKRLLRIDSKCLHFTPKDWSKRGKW
UniProt Q61324: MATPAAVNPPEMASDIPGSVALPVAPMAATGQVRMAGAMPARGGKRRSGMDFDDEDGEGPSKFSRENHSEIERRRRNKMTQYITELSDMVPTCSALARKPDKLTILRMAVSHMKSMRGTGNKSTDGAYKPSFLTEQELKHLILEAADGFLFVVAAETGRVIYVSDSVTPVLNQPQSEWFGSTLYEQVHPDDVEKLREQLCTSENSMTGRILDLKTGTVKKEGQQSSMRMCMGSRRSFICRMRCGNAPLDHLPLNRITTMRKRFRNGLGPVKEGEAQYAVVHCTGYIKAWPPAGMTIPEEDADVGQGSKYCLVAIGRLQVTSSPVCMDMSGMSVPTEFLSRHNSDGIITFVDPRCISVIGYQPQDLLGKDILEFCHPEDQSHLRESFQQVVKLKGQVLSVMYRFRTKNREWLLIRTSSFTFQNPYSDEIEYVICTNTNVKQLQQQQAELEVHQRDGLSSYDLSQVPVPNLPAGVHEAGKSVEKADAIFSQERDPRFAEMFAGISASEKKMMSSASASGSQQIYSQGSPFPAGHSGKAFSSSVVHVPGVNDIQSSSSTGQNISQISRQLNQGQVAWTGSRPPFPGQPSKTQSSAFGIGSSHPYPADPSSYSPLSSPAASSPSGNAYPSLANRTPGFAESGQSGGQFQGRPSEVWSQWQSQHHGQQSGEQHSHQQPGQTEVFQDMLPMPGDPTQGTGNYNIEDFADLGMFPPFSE
UniProt A2AQ25: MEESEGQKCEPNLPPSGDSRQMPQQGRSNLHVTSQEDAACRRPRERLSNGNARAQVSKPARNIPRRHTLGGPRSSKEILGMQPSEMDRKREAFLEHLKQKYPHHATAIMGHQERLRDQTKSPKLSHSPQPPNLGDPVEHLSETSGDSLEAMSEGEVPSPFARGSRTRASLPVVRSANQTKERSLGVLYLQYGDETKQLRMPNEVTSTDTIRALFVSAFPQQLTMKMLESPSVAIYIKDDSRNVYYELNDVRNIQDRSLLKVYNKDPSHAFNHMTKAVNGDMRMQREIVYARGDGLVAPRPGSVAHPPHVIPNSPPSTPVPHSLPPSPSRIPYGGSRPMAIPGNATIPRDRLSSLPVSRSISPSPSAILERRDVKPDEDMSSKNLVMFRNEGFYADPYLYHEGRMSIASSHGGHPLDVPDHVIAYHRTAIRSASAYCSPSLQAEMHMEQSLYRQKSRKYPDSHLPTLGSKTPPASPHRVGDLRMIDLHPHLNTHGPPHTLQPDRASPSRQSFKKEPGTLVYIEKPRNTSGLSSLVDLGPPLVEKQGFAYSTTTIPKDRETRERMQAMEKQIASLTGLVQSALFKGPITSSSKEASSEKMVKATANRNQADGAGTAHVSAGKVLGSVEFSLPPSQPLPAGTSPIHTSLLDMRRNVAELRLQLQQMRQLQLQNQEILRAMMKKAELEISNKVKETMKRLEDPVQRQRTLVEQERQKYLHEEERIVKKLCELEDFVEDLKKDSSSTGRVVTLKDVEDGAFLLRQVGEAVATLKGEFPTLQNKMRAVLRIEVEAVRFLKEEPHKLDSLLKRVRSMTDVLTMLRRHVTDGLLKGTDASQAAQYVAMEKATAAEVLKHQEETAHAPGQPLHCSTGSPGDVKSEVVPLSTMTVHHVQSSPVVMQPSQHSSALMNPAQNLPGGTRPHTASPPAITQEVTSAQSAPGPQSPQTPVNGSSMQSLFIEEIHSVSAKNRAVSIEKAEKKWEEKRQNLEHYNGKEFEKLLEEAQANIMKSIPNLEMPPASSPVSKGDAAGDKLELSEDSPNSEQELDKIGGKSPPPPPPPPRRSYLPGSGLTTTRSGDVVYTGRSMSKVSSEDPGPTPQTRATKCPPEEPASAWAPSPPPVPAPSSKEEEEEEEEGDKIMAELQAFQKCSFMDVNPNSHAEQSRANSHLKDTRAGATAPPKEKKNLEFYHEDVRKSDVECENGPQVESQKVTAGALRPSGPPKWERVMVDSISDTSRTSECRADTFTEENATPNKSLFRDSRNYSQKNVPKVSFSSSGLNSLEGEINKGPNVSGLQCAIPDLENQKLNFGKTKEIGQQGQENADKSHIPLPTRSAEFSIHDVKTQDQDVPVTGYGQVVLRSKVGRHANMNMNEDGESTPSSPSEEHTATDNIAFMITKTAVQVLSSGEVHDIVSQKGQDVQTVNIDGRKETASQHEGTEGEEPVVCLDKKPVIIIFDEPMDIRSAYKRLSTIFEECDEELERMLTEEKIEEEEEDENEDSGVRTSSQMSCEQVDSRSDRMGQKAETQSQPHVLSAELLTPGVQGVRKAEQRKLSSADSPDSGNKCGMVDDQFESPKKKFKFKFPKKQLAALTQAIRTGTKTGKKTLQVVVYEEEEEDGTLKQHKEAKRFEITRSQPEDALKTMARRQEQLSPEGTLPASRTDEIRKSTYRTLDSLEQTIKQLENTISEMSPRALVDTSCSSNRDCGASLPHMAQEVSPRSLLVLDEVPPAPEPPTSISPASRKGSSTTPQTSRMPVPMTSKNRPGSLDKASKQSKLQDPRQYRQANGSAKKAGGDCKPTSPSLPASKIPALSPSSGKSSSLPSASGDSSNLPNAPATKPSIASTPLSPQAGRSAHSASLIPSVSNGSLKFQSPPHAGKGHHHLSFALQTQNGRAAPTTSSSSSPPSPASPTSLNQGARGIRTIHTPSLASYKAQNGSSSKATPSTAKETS

- binding [1]: binds
Molecule: ARNT2 (from UniProt Q61324 1-712)

- binding [1]: binds
- binding (NPAS4–Flag-HA (mouse)): binds
Molecule: ETL4 (from UniProt A2AQ25 1-1946)

- binding [1]: binds
B1: NPAS4 (protein, UniProt Q8BGD7 1-802)
chain: T1 sequence
